Measurements reported in PubChem BioAssay AID1259308 (NCATS, 2017).

Assay: 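Knock-downs that increase output of a recombinant reporter protein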 (primary screen)
Cells: human HEK293 embryonic kidney cells stably expressing firefly luciferase (HEK-CMV-Luc2-Hygro)
Reagent: single siRNA against human genes, 0.8 pmol siRNA per well
Duration: 72 h
Measured: 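Luciferase light (ONE-Glo) measured on one replicate plate set and viability (CellTiter-Glo) on the other, scaled to a negative control siRNA, with robust z-scores and luciferase per cell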
Direction: total luciferase, z-score and total luciferase, % of control: higher = more reporter protein produced; luciferase per cell, z-score: higher = more reporter output per viable cell; viable cells, % of control: higher = more viable cells
Hit rule: 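An siRNA counts as active if its total luciferase robust z-score exceeds 3; genes with two or more such siRNAs out of three were retested with fresh siRNAs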
Calls: active = raised luciferase; inactive = no rise
Shown is one part, drawn at random, of about 59,000 reagents. About 1,510 of them (2.6%) were called active. 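Calls use total luciferase alone and ignore viability, so some active siRNAs may act by altering cell number.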 The numbers tell different reagents against one gene apart.

| gene symbol | reagent | total luciferase, z-score | total luciferase, % of control | luciferase per cell, z-score | viable cells, % of control | call |
| --- | --- | --- | --- | --- | --- | --- |
| ERICH6B (GeneID 220081) | 1 | 0.967 | 101 | 0.874 | 89.8 | inactive |
| ERICH6B (GeneID 220081) | 2 | 2.12 | 124 | 1.53 | 92.7 | inactive |
| ERICH6B (GeneID 220081) | 3 | -0.0308 | 81.3 | -0.204 | 95.8 | inactive |
| SNORC (GeneID 389084) | 1 | -0.345 | 75 | -0.227 | 89 | inactive |
| SNORC (GeneID 389084) | 2 | 0.342 | 88.7 | -0.244 | 106 | inactive |
| SNORC (GeneID 389084) | 3 | 2.66 | 135 | 3.2 | 64.8 | inactive |
| ZCCHC9 (GeneID 84240) | 1 | -1.23 | 57.4 | -0.171 | 67.1 | inactive |
| ZCCHC9 (GeneID 84240) | 2 | -1.5 | 52 | -0.354 | 63.8 | inactive |
| ZCCHC9 (GeneID 84240) | 3 | 1.98 | 121 | 2.63 | 67.8 | inactive |
| YBX1P6 (GeneID 402375) | 1 | -0.783 | 66.3 | 2.53 | 38 | inactive |
| YBX1P6 (GeneID 402375) | 2 | 0.372 | 89.3 | 0.0902 | 97.4 | inactive |
| YBX1P6 (GeneID 402375) | 3 | 2.41 | 130 | 1.23 | 105 | inactive |
| MKRN2 (GeneID 23609) | 1 | -0.771 | 66.6 | -0.298 | 80.5 | inactive |
| MKRN2 (GeneID 23609) | 2 | 1.12 | 104 | 0.563 | 100 | inactive |
| MKRN2 (GeneID 23609) | 3 | 0.657 | 95 | 0.088 | 104 | inactive |
| DIRC1 (GeneID 116093) | 1 | 0.837 | 98.5 | 0.328 | 101 | inactive |
| DIRC1 (GeneID 116093) | 2 | 0.0255 | 82.4 | 0.422 | 82.4 | inactive |
| DIRC1 (GeneID 116093) | 3 | 0.879 | 99.4 | 0.617 | 94.4 | inactive |
| OR10A7 (GeneID 121364) | 1 | -0.601 | 69.9 | -0.816 | 96.9 | inactive |
| OR10A7 (GeneID 121364) | 2 | -0.499 | 72 | -0.154 | 83.7 | inactive |
| OR10A7 (GeneID 121364) | 3 | -0.15 | 78.9 | -0.458 | 99.5 | inactive |
| STAT6 (GeneID 6778) | 1 | 3.73 | 156 | 2.61 | 87.7 | active |
| STAT6 (GeneID 6778) | 2 | 2.12 | 124 | 1.51 | 93 | inactive |
| STAT6 (GeneID 6778) | 3 | 2.44 | 130 | 1.04 | 111 | inactive |
| TRNP1 (GeneID 388610) | 1 | 0.93 | 100 | 1.91 | 67.9 | inactive |
| TRNP1 (GeneID 388610) | 2 | -0.33 | 75.3 | -0.9 | 107 | inactive |
| TRNP1 (GeneID 388610) | 3 | -1.63 | 49.6 | 0.903 | 43.7 | inactive |
| XIRP1 (GeneID 165904) | 1 | 1.91 | 120 | 1.36 | 93.7 | inactive |
| XIRP1 (GeneID 165904) | 2 | 2.82 | 138 | 2.88 | 72.2 | inactive |
| XIRP1 (GeneID 165904) | 3 | 0.842 | 98.6 | 0.993 | 84.9 | inactive |
| LINC03042 (GeneID 389649) | 1 | 1.58 | 113 | 1.92 | 76.5 | inactive |
| LINC03042 (GeneID 389649) | 2 | 1.6 | 114 | 1.65 | 82.2 | inactive |
| LINC03042 (GeneID 389649) | 3 | 1.65 | 115 | 2.84 | 60.7 | inactive |
| TUSC3 (GeneID 7991) | 1 | 0.611 | 94 | -0.292 | 113 | inactive |
| TUSC3 (GeneID 7991) | 2 | 1.73 | 116 | 1.59 | 85.6 | inactive |
| TUSC3 (GeneID 7991) | 3 | 0.0405 | 82.7 | -0.114 | 95.2 | inactive |
| MMP11 (GeneID 4320) | 1 | 0.132 | 84.5 | 0.279 | 87.8 | inactive |
| MMP11 (GeneID 4320) | 2 | -0.207 | 77.8 | -0.715 | 105 | inactive |
| MMP11 (GeneID 4320) | 3 | -1.54 | 51.3 | -1.9 | 94.6 | inactive |
| PATJ (GeneID 10207) | 1 | -0.0965 | 80 | -0.623 | 105 | inactive |
| PATJ (GeneID 10207) | 2 | -0.0889 | 80.1 | -0.685 | 107 | inactive |
| PATJ (GeneID 10207) | 3 | 0.293 | 87.7 | 0.457 | 86.9 | inactive |
| HLA-DRB7 (GeneID 3129) | 1 | 1.22 | 106 | 1.05 | 89.9 | inactive |
| HLA-DRB7 (GeneID 3129) | 2 | 0.868 | 99.2 | 1.05 | 84 | inactive |
| HLA-DRB7 (GeneID 3129) | 3 | 0.0215 | 82.3 | -0.211 | 97.2 | inactive |
| TDRKH (GeneID 11022) | 1 | 2.19 | 125 | 0.989 | 108 | inactive |
| TDRKH (GeneID 11022) | 2 | -1.43 | 53.4 | -1.31 | 84.2 | inactive |
| TDRKH (GeneID 11022) | 3 | 0.645 | 94.7 | 0.359 | 96.3 | inactive |
| FAM163B (GeneID 642968) | 1 | 0.969 | 101 | 0.498 | 99.1 | inactive |
| FAM163B (GeneID 642968) | 2 | 0.0882 | 83.6 | -0.152 | 97.3 | inactive |
| FAM163B (GeneID 642968) | 3 | 1.13 | 104 | 1.2 | 85.1 | inactive |
| TBCEL (GeneID 219899) | 1 | 1.19 | 106 | 2.03 | 69.1 | inactive |
| TBCEL (GeneID 219899) | 2 | 2.61 | 134 | 2.46 | 78.2 | inactive |
| TBCEL (GeneID 219899) | 3 | -2.08 | 40.5 | -2.41 | 85.2 | inactive |
| ZNF286B (GeneID 729288) | 1 | -0.135 | 79.2 | 0.126 | 85.6 | inactive |
| ZNF286B (GeneID 729288) | 2 | 2.3 | 128 | 2.91 | 66.2 | inactive |
| ZNF286B (GeneID 729288) | 3 | 0.729 | 96.4 | 1.07 | 81.3 | inactive |
